According to PubChem BioAssay AID504834 (National Center for Advancing Translational Sciences (NCATS), 2011):
Several values for one entry are separate records, joined by “and”; a condition that tells them apart may be missing. Identical values can stand only once. About 22,000 (6.9%) of roughly 320,000 compounds were called active. The inconclusive results got no clear call from the source; some entries with a clear call stand among them for comparison. Calls follow the shape of the dose curve; as a rule, active = well fitted inhibition curve with a large enough effect; inconclusive = small, poorly fitted or top-dose-only effect, or another doubt; inactive = no such curve, though single readings can be large or run the other way. Potencies of inconclusive entries are doubtful fits and often do not repeat.

assay: Primary qHTS for delayed death inhibitors of the malarial parasite plastid, 96 hour incubation; details: P. falciparum luciferase reporter growth; series mostly up to 28.7 µM; activity change, negative = inhibition: at the top concentration
Summary of the method: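 Erythrocytes infected with luciferase-expressing P. falciparum were dispensed at 2% hematocrit and 0.05% parasitemia (final), then incubated with compounds 96 hours at 37 C in 5% CO2. Luminescence after detection reagent addition reported growth.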
% is scaled to controls: 0 for no effect and ±100 for the full control effect; potency is read from the fitted curve at half-maximal effect.

Row | Compound | Potency | activity change, negative = inhibition
1 | Cc1ccc(NC(=O)CCCCCN2C(=O)[C@@H]3Cc4ccccc4CN3C2=O)cc1 | inconclusive: 18.5 µM [inhibitor, single point] | 
2 | O=C(NCC1CCCO1)c1ccc2c(c1)ncn2-c1cccc(F)c1 (stereo not given) | inconclusive: 0.0029 µM [inhibitor, full curve, poor fit] | 
3 | COC(=O)c1c(NC(=O)CN2C(=O)NC3(CCCCC3C)C2=O)sc2c1CCC2 (stereo not given) | inconclusive: 9.28 µM [inhibitor, partial curve] | 
4 | O=C(CSc1nc2ccccc2c(=O)[nH]1)N1CCN(c2ccccc2F)CC1 | inconclusive: 10.4 µM [inhibitor, single point] | 
5 | CCOC(=O)C1=C(C)N(CCCC(=O)O)C(=O)NC1c1ccc(OC)cc1 (stereo not given) | inconclusive: 0.0329 µM [inhibitor, full curve, poor fit] | 
6 | CC(=O)c1c(C)[nH]c(C(=O)Nc2nc(-c3ccc(Cl)cc3)cs2)c1C | inconclusive: 18.5 µM [inhibitor, single point] | 
7 | COc1ccc(Nc2nnc(SC(C(=O)Nc3ccc(OC)c(Cl)c3)c3ccccc3)s2)cc1 (stereo not given) | active: 9.28 µM | 
8 | COC(=O)C1CCN(C(=O)C2CCN(C(=O)[C@@H](NS(=O)(=O)c3ccc(C)cc3)C(C)C)CC2)CC1 | inconclusive: 4.15 µM [inhibitor, single point] | 
9 | COc1ccc(C(=O)COC(=O)CCCN=C2NS(=O)(=O)c3ccccc32)c(OC)c1 | inconclusive: 11.7 µM [inhibitor, single point] | 
10 | Cc1nn(C)c(C)c1NC(=O)CCCSc1nc(-c2ccco2)cc(C(F)(F)F)n1 | inconclusive: 13.1 µM [inhibitor, single point] | 
11 | O=C(Nc1nnc(-c2ccccc2F)s1)Nc1ccccc1F | inconclusive: 2.33 µM [inhibitor, full curve, poor fit] | 
12 | S=C(NCCCN1CCOCC1)Nc1cccc(Cl)c1 |  | inactive: 44.7%
13 | CCOc1ccc(C(=O)Nc2ccc3c(c2)OCCO3)cc1[N+](=O)[O-] | inconclusive: 18.5 µM [inhibitor, single point] | 
14 | CN1CCC2(CC1)C1CN(C)CC=C1C(C#N)=C(N)C2(C#N)C#N (stereo not given) | inconclusive: 0.262 µM [inhibitor, full curve, poor fit] | 
15 | COc1ccc(/C=C/C(=O)C2C(=O)C=C(C)OC2=O)cc1O (stereo not given) | inconclusive: 13.1 µM [inhibitor, single point] | 
16 | COc1cc(CNC2CCCC2)c(Br)cc1OC1CCCC1 | inconclusive: 10.4 µM [inhibitor, single point] | 
17 | O=C(Nn1c(O)c(C=C2N=c3ccccc3=N2)sc1=S)c1ccccc1Cl | inconclusive: 11.7 µM [inhibitor, single point] | 
18 | Cc1cc(N2CCOCC2)nc2ccc(NC(=S)N3CCCCC3C)cc12 (stereo not given) | inconclusive: 4.15 µM [inhibitor, single point] | 
19 | COc1ccccc1/C=C/C=N/n1c(-c2ccncc2)n[nH]c1=S | active: 7.38 µM | 
20 | COc1ccc(OC)c(NC(=O)COC(=O)/C=C/c2ccccc2Cl)c1 | inconclusive: 2.62 µM [inhibitor, single point] | 
21 | CCOC(=O)CN1C(=O)C(Sc2n[nH]c(-c3ccc(C)cc3)n2)CCc2ccccc21 (stereo not given) | active: 11.7 µM | 
22 | CCOc1ccc(N(CC(=O)NC2CCCCC2)C(=O)CSc2nnc(COc3ccccc3)o2)cc1 | inconclusive: 7.38 µM [inhibitor, partial curve] | 

Row | Compound | Potency | activity change, negative = inhibition
23 | CC(C)CCNC(=O)C(C)N(C(=O)Cn1nnc(-c2ccc(F)cc2)n1)C1CCCC1 (stereo not given) | inconclusive: 4.15 µM [inhibitor, partial curve] | 
24 | COc1ccc(N2C(=O)C(Cl)=C(NCc3ccccc3)C2=O)cc1 | inconclusive: 18.5 µM [inhibitor, partial curve, poor fit] | 
25 | COc1cc(C)ccc1OCc1cc(C(=O)NCCN2CCCC(O)C2)no1 (stereo not given) | inconclusive: 18.5 µM [inhibitor, single point] | 
26 | CCN(CC)C(=S)SSC(=S)N(CC)CC | inconclusive: 4.78 µM [inhibitor, partial curve] and inconclusive: 9.28 µM [inhibitor, partial curve] | 
27 | CCOCCOC(=O)C(C)Sc1n[nH]c(=O)[nH]c1=O (stereo not given) | inconclusive: 18.5 µM [inhibitor, single point] | 
28 | CCN(CC)c1ncnc2c1sc1nc(C)cc(C)c12 | inconclusive: 10.4 µM [inhibitor, single point] | 
29 | CCN(c1ccccc1)S(=O)(=O)c1ccc(C(=O)Nc2ncccc2O)cc1 | active: 5.86 µM | 
30 | CCN(C(=O)CSc1nc2cc(S(=O)(=O)N(CC)CC)ccc2n1CC)C1CCS(=O)(=O)C1 (stereo not given) | inconclusive: 5.22 µM [inhibitor, partial curve, poor fit] | 
31 | C1=CC(Cc2cncs2)c2ccccc21 (stereo not given) | inconclusive: 16.5 µM [inhibitor, single point] | 
32 | Cc1nn(C(=O)CNC(=O)c2ccccc2)c(C)c1C | inconclusive: 18.5 µM [inhibitor, single point] | 
33 | CC(Oc1ccccc1)C(=O)Nc1nnc(S(=O)(=O)N2CCCCC2)s1 (stereo not given) | inconclusive: 16.5 µM [inhibitor, single point] | 
34 | CCCNC(=O)N1[C@H]2CC[C@@H]1C(C(=O)OC)=C(c1ccc(F)cc1OCc1ccccc1)C2 | inconclusive: 11.7 µM [inhibitor, single point] | 
35 | CCc1ccccc1NC(=O)C1CCCN(c2ncnc3onc(-c4ccc(F)cc4)c23)C1 (stereo not given) | inconclusive: 18.5 µM [inhibitor, single point] | 
36 | Cc1ccc2cc(CCNC(=O)CC(C)(C)C)c(=O)[nH]c2c1C | inconclusive: 9.28 µM [inhibitor, partial curve, poor fit] | 
37 | COc1ccccc1C(CNC(=O)c1ccc(NS(=O)(=O)c2ccc3c(c2)OCCO3)cc1)N(C)C (stereo not given) | active: 11.7 µM | 
38 | Cc1cccc(N2CCN(C(=O)c3ccc4c(c3)NC(=O)C(CSCc3cccc(F)c3)N4)CC2)c1C (stereo not given) | inconclusive: 11.7 µM [inhibitor, single point] | 
39 | N/C(=N/OCc1cccc([N+](=O)[O-])c1)c1nonc1N |  | inactive: 17.8%
40 | FC(F)(F)c1ccc(CN2C[C@@H]3C(c4ccc(Cl)nc4)C4(c5ccccc5)CC3(C4)[C@H]2c2ccccc2)cc1 (stereo not given in full) | inconclusive: 18.5 µM [inhibitor, single point] | 
41 | Cc1cccc(NCc2ccc(N(C)C)cc2)n1 | inconclusive: 8.28 µM [inhibitor, partial curve, poor fit] | 
42 | CCCCC(CC)Cn1c(O)c(/C=C2\C=NN=C2c2ccccc2)sc1=S (stereo not given) | inconclusive: 18.5 µM [inhibitor, single point] | 
43 | Cc1ccc(-n2c(C)cc(C(=O)COC(=O)c3ccc[nH]c3=O)c2C)cc1C | inconclusive: 11.7 µM [inhibitor, single point] | 
44 | CCCc1cc(=O)[nH]c(SCc2ccc(Cl)cc2)n1 | inconclusive: 9.28 µM [inhibitor, partial curve, poor fit] | 

Row | Compound | Potency | activity change, negative = inhibition
45 | CSc1cccc(NC(=S)Nc2cc(C)ccc2C)c1 | inconclusive: 16.5 µM [inhibitor, single point] | 
46 | COc1cc(C(c2c(O)nc(SC)[nH]c2=O)c2c(O)nc(SC)[nH]c2=O)cc(OC)c1OC |  | inactive: -11%
47 | O=c1[nH]c(=O)n(Cc2ccco2)c(O)c1C=NCc1ccc2c(c1)OCO2 | inconclusive: 1.65 µM [inhibitor, full curve, poor fit] | 
48 | CC1c2cc3c(cc2CCN1C(=O)c1cccc(Cl)c1)OCCCO3 (stereo not given) | inconclusive: 18.5 µM [inhibitor, single point] | 
49 | O=C(CCCN1C(=O)/C(=C/c2cccs2)SC1=S)Nc1cccc(O)c1 |  | inactive: 24.3%
50 | Cc1ccccc1CS(=O)(=O)Cc1ccc(C(=O)NCCc2ccccc2)o1 |  | inactive: -8.03%
51 | CC(=O)Nc1ccccc1OCC(O)CS(=O)(=O)c1ccc(C(F)(F)F)cn1 (stereo not given) |  | inactive: 15.2%
52 | O=C(NCc1ccccc1Cl)C(=O)NCC(c1ccco1)N1CCOCC1 (stereo not given) |  | inactive: 28.1%
53 | O=C(Cc1cccs1)N/N=C/C=C\c1ccco1 |  | inactive: 180%
54 | COc1ccccc1N1CCN(C2CCCN(Cc3c(F)cccc3F)C2)CC1 (stereo not given) |  | inactive: -62.3%
55 | C/C(=N\NC(=S)Nc1c(C)cccc1C)c1ccc(OC(F)F)cc1 | inconclusive: 9.28 µM [inhibitor, partial curve] | 
56 | O=S(=O)(Nc1ccc(Cc2ccncc2)cc1)c1ccc(Br)cc1 | inconclusive: 11.7 µM [inhibitor, single point] | 
57 | CN(C)S(=O)(=O)N1CCC(Oc2cccc(C(=O)NCCC3=CCCCC3)c2)CC1 |  | inactive: 6.66%
58 | CCOc1ccccc1NC(=O)Nc1ccc(OC)nc1 | inconclusive: 13.1 µM [inhibitor, partial curve, poor fit] | 
59 | CC(C)[C@@H](C(=O)N1CCNCC1)n1cc(CCO)nn1 |  | inactive: 41.6%
60 | Cc1ccccc1Cn1c(=O)n(CCCC(=O)NCc2ccco2)c(=O)c2ccccc21 | inconclusive: 10.4 µM [inhibitor, partial curve, poor fit] | 
61 | CCn1c(CC(=O)Nc2ccc(Cl)c(Cl)c2)nnc1SCc1ccc(Cl)cc1 |  | inactive: -7.06%
62 | COc1ccc(NC(=O)CSc2ncn(-c3ccccc3)n2)cc1Cl | inconclusive: 18.5 µM [inhibitor, single point] | 
63 | CC(=O)Nc1ccccc1OCC(=O)NCC(F)(F)F |  | inactive: 11%
64 | NNc1nnc2c3cc(F)ccc3n(CCc3ccccc3)c2n1 | inconclusive: 10.4 µM [inhibitor, single point] | 
65 | CCCn1c(N)c(C(=O)CSc2nnc(Cc3ccccc3)o2)c(=O)n(C)c1=O | inconclusive: 9.28 µM [inhibitor, partial curve, poor fit] | 
